Data as given in article doi:10.1101/615138.
These are yes or no findings as the source states them, for the method shown. Where a sequence is shown, tags or fusion partners need not be part of it.

Target: T1, SNAP-PD-L2-His (ectodomain of human PD-L2, aa 20–220) (human) (UniProt Q9BQ51)
T1 sequence (chain, SNAP-Cell 505 (SC505) on the SNAP-tag): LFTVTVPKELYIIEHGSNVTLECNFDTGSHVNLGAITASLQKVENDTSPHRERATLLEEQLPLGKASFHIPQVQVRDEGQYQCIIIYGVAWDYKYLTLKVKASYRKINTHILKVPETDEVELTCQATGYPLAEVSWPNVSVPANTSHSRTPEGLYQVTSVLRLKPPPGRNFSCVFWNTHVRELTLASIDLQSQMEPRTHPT
Experiment: FRET or BRET

binding: no binding
Substance: SNAP-CD80-His (ectodomain of human CD80, aa 35–242) (from UniProt P33681 35-242) (domain or fragment)
